Tested on: human saphenous vein
Assay: Quantitative MR relaxation rate measurements (R1, R2) of veins incubated in Gd-DTPA
Details: vein incubated in 5 mM, 3 T

## O=C([O-])CN(CCN(CC(=O)[O-])CC(=O)O)CCN(CC(=O)[O-])CC(=O)O.[Gd+3] [non-activated Gd-DTPA, Diethylenetriaminepentaacetic acid gadolinium^3+ dihydrogen]
  R1: 0.89 ± 0.03 s⁻¹
  R2: 10.5 ± 0.8 s⁻¹
